Data from patent publication US11560358B2, “Resveratrol-piperazine co-crystals” (LETAVIS AB, priority 2018, dated 2023).

Method: In situ dissolution experiments were performed with a μDISS Profiler apparatus (pION Inc., MA, USA). The system consists of an integrated diode array spectrophotometer connected to a fiber optic UV probe located directly in the reaction vessel (20 ml scintillation vial) and measures the concentration as a function of time, without filtering the solution. Measurement of the dissolution kinetics was carried out at 220 nm and 270 nm, which are optimal for the UV detection of resveratrol and […], respectively. The concentrations of the compounds in the dissolution media (water, buffer pH=4, pH=6) were calculated by means of a standard curve.

SMILES: COc1cc(/C=C/C(=O)CC(=O)/C=C/c2ccc(O)c(OC)c2)ccc1O [curcumin]
- solubility in water: practically insoluble in water
